Measured values as given in publication PMC4489804.
These are yes or no findings as the source states them, for the method shown. For part of these data: Binding can be weak; no strength is given. For part of these data: Tags and fused reporters may be left off the sequences shown. For part of these data: In cells and extracts the contact can be indirect.

The chains behind the UniProt entries cited, without tags or fusion partners. Where a name states a change or a piece, a line headed by the entry shows the natural chain unless it says otherwise.
UniProt Q9SJF3: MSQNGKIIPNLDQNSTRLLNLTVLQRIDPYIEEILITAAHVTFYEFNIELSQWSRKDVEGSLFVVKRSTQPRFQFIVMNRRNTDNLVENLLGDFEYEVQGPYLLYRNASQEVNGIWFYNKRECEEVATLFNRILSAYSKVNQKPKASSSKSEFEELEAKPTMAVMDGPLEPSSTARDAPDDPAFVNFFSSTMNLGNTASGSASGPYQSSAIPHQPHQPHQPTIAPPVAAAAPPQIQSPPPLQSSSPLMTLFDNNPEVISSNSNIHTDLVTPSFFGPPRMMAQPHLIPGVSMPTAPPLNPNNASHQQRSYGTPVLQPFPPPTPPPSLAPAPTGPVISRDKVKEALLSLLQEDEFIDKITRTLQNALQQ
UniProt F4HZB2: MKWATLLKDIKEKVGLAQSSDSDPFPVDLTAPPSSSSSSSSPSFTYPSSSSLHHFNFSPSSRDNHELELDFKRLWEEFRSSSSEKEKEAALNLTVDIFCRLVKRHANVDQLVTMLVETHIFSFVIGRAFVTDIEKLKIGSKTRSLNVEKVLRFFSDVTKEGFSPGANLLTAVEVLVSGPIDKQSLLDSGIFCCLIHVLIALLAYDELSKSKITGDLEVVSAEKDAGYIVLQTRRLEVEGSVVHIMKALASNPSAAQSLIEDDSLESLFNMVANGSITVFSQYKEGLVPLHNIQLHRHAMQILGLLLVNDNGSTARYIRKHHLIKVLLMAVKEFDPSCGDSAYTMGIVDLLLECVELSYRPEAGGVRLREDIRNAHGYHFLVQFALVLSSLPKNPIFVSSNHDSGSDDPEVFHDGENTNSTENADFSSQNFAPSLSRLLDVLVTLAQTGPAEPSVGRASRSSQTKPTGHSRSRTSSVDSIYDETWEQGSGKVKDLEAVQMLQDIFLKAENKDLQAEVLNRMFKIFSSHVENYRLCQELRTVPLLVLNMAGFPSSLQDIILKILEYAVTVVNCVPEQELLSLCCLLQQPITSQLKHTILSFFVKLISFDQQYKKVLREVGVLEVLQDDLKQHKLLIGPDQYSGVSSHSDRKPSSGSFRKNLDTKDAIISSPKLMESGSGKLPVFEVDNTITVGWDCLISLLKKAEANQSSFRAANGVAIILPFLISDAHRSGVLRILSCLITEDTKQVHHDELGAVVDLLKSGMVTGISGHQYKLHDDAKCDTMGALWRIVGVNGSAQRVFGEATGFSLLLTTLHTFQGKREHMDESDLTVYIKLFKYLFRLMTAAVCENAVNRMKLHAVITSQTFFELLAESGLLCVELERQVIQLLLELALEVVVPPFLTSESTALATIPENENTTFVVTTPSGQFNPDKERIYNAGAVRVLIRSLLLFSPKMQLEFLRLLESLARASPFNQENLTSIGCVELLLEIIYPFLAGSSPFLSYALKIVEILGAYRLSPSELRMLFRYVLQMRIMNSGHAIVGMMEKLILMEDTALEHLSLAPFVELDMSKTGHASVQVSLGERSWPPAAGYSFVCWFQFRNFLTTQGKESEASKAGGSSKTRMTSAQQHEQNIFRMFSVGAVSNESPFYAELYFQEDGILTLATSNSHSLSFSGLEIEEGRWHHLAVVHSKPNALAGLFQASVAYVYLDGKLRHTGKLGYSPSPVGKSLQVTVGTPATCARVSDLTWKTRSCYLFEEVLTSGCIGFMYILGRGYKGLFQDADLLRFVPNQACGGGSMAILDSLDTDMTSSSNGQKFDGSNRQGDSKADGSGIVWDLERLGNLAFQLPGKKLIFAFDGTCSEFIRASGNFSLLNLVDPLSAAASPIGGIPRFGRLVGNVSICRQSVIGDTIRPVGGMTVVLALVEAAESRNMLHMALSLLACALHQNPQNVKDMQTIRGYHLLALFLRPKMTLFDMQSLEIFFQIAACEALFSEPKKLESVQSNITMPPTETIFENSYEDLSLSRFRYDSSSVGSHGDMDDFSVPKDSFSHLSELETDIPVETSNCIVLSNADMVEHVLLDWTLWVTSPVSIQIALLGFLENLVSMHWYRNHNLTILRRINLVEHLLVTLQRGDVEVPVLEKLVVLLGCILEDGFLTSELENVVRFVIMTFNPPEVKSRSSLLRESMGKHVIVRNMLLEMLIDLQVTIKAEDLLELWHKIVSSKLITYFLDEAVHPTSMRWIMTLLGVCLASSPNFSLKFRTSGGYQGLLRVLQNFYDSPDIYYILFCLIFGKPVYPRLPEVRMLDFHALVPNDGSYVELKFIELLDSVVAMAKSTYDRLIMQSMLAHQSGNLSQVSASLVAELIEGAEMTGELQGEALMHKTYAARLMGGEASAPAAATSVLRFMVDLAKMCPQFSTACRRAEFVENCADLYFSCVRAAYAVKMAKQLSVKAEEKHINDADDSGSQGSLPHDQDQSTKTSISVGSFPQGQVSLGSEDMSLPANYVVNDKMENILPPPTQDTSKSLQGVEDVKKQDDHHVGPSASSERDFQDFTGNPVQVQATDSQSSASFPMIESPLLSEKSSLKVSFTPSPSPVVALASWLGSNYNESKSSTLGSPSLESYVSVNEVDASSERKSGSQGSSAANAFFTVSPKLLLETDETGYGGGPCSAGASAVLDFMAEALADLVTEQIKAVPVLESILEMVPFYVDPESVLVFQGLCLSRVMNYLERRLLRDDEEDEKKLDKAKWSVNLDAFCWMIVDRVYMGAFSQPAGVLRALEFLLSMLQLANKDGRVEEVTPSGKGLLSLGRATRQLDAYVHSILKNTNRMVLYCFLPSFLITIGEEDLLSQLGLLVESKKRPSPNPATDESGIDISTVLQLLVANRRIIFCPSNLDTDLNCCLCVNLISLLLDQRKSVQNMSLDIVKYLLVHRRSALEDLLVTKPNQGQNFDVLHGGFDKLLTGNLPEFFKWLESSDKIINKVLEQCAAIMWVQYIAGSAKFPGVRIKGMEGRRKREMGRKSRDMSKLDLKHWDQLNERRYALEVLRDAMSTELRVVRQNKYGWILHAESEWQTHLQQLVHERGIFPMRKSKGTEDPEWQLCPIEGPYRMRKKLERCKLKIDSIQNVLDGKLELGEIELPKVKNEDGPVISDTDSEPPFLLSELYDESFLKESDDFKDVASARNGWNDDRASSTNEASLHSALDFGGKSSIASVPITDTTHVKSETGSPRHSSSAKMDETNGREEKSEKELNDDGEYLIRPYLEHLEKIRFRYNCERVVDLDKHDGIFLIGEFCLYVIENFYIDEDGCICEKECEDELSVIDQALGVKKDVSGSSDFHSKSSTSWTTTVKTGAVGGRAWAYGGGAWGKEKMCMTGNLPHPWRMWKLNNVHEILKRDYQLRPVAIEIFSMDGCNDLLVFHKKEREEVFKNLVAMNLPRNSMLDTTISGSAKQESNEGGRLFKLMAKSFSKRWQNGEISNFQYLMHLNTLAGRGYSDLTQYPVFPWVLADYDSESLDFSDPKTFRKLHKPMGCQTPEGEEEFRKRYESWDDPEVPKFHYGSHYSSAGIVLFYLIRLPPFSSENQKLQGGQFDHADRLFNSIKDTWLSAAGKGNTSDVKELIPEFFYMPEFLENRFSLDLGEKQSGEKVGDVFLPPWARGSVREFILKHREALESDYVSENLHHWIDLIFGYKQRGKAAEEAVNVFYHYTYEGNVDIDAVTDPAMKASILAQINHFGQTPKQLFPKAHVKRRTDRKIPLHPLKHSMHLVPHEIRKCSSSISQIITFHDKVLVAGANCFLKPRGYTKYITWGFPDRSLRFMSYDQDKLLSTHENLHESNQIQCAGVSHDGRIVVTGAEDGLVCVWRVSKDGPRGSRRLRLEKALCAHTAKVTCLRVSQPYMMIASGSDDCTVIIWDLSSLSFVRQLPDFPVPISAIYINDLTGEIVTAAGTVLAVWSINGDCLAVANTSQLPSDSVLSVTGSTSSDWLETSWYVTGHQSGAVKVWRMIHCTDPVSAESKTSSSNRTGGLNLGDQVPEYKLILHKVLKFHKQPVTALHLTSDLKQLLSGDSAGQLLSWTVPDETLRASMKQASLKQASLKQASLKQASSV
UniProt Q92636: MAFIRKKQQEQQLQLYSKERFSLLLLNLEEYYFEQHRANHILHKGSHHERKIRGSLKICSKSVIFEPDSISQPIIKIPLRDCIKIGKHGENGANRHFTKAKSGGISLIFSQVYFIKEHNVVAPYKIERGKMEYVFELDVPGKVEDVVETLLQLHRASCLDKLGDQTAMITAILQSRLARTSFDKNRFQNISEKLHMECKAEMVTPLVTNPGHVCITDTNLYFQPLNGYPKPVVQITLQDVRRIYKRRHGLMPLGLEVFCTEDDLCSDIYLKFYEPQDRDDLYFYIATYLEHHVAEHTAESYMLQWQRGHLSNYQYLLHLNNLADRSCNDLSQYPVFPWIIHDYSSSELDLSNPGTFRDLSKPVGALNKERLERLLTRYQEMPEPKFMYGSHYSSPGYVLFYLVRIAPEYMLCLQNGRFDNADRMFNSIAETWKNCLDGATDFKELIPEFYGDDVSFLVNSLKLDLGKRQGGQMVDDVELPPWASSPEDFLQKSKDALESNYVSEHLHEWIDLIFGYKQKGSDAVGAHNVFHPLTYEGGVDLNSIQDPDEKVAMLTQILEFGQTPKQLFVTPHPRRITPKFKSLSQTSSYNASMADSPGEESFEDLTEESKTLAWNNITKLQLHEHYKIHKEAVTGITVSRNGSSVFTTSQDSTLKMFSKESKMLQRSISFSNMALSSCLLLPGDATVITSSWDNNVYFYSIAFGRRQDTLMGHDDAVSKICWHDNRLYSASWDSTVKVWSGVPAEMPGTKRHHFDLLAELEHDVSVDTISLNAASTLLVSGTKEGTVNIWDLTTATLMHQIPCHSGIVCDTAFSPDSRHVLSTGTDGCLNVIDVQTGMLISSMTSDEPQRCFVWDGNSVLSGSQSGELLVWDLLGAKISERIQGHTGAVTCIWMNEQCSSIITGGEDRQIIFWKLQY
UniProt Q9FY89: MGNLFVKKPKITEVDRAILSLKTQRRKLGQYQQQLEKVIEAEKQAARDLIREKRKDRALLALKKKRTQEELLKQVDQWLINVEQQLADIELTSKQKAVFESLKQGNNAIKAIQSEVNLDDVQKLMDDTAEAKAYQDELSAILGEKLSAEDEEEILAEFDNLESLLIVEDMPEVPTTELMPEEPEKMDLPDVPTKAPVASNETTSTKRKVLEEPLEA

B1: yeast DCP1p, N-terminal fused to the GAL4 Activation Domain (AD) (protein, UniProt Q12517 1-231)
chain: MTGAATAAENSATQLEFYRKALNFNVIGRYDPKIKQLLFHTPHASLYKWDFKKDEWNKLEYQGVLAIYLRDVSQNTNLLPVSPQEVDIFDSQNGSNNIQVNNGSDNSNRNSSGNGNSYKSNDSLTYNCGKTLSGKDIYNYGLIILNRINPDNFSMGIVPNSVVNKRKVFNAEEDTLNPLECMGVEVKDELVIIKNLKHEVYGIWIHTVSDRQNIYELIKYLLENEPKDSFA
B2: human DCP1b, N-terminal fused to the GAL4 Activation Domain (AD) (protein, UniProt Q8IZD4 1-617)
chain: MAAVAAGGLVGKGRDISLAALQRHDPYINRIVDVASQVALYTFGHRANEWEKTDVEGTLFVYTRSASPKHGFTIMNRLSMENRTEPITKDLDFQLQDPFLLYRNARLSIYGIWFYDKEECQRIAELMKNLTQYEQLKAHQGTGAGISPVILNSGEGKEVDILRMLIKAKDEYTKCKTCSEPKKITSSSAIYDNPNLIKPIPVKPSENQQQRIPQPNQTLDPEPQHLSLTALFGKQDKATCQETVEPPQTLHQQQQQQQQQQEKLPIRQGVVRSLSYEEPRRHSPPIEKQLCPAIQKLMVRSADLHPLSELPENRPCENGSTHSAGEFFTGPVQPGSPHNIGTSRGVQNASRTQNLFEKLQSTPGAANKCDPSTPAPASSAALNRSRAPTSVTPVAPGKGLAQPPQAYFNGSLPPQTVGHQAHGREQSTLPRQTLPISGSQTGSSGVISPQELLKKLQIVQQEQQLHASNRPALAAKFPVLAQSSGTGKPLESWINKTPNTEQQTPLFQVISPQRIPATAAPSLLMSPMVFAQPTSVPPKERESGLLPVGGQEPPAAATSLLLPIQSPEPSVITSSPLTKLQLQEALLYLIQNDDNFLNIIYEAYLFSMTQAAMKKTM
B3: … PROTEIN5 (DCP5) fused to the GAL4 Activation Domain (protein, UniProt Q9C658 1-611)
chain: MAADNTGSKSSSAADSYVGSLISLTSKSEIRYEGILYNINTDESSIGLQNVRSFGTEGRKKDGPQVPPSDKVYEYILFRGTDIKDLQVKASPPVQPPASTINNDPAIIQSHYPSPMPTSGSLPSTASGSLPDISSHNGQPGQHGMGFQNAMPLYQPGGNLGSWGASPQPPMYWQGFYTPPPNGLPQLHQQSLIRPPHGLPMPNSLQQPLQYPNFNTPPPPTGSSSLQGSSLPEAPSSLFPFSTSSQMLAPSSLPFPGLPPVTLSSSLQSTLQSAPSPSLASEMAPPLLSNKAPITAPPTLPQDTNLLSFSLSTTRATEASTGLPLSNKPSVVTGPISPPQTTPLTSAPVAGVSSSISQDKPKPLLVTPGQLLQSGSSAVSLSPPSTNADKDVEVVQVSSSAGLEQSVPVTSEAQPPILPLPSSARPTQKPNGHSFPNHNGYRGRGRGRGRGAGRSHQVMKFTEDFDFTAMNEKFNKDEVWGHLGKSTTLDGDEDDDSPTVDEAELPKIEAKPVYNKDDFFDSLSSNTIDRESQNSRPRFSEQRKLDTETFGEFSRFRGGRGGRGGYGRNNGYSRGGYGGRGYGGYGGRGGGGGGYGYGGRGQGRGVSNRTT
B4: VARICOSE (VCS) fused to the GAL4 Activation Domain (protein, UniProt Q9LTT8 1-1344)
chain: MASSPGNTNPHNTPPFDLGILFKPSSNPYPPPAASYPPPTGPFLHNQYDQQHYAPPGISAQPSPVTQQQQDVSSSSAATNLHPQRTLSYPTPPLNLQSPRSNHNPGTHILALLNNTNNGAPVANQEPSHQLPVVNHNEIARSFPGGSGPIRVPSCKLPKGRRLIGEHAVYDVDVRLQGEIQPQLEVTPITKYGSDPQLVVGRQIAVNKVYICYGLKGGNIRVLNINTALRSLFRGHSQRVTDMAFFAEDVDMLASVSLDGKVFVWKISEGSEGEDQPQITGKIVLALQILGEEDTKHPRVCWHCHKQEILVVSIGKHVLRIDTTKVGRGEVFSAEAPLQCPLDKLIDGVQIVGKHDGEVTDLSMCQWMTTRLVSSSVDGTIKIWQDRKAQPLVVLRPHDGHPVSSATFVTSPERPDHIILITGGPLNREMKIWVSAGEEGWLLPADAESWRCTQTLDLKSSTEPRAEEAFFNQVIALSEAGLLLLANAKRNALYAVHLDYGSSPVGTRMDYLSEFTVTMPILSFIGTNDPPEEPIVKVYCVQTLAIQQYTLDLCLCLPPPIENMGLEKSDSSVSREANLVEGMSEPSGLKPTDLPSVDSVPKPSIIVNRSESANKLSFPSAEATSQAIVPPNGEPKTSGLPSQTSGAGSAYATLPQLPLSPRLSSKLSGYHTPVEAIEPVIPHHELGGKTPSADYSVDRQMDAVGERNLDVSSVEEISRSKDSNVTPDDDVSGMRSPSAFFKHPTHLVTPSEILMGVSSAEASITTEDRRDRDANIQDVNNDPRDTEVEVKEISEARSTQNGEINDHDETENCTSENREKVFCSQVSNLSTEMARDCYPSTEGTFIPGESKAYGQPIKAGDESGVDSRGGPAKLLKGKKQKAKNSQGPGLSSTSSNVANLADSFNEQSQSLSHPMTDLLPQLLAMQETMNQVMASQKEMQRQLSNAATGPIGKESKRLEVALGRMIEKSSKSNADALWARIQEETVKNEKALRDHAQQIVNATTNFMSKELNAMFEKTIKKELAAIGPALARSVVPVIEKTVSSAITESFQRGIGDKAVNQLDKSVNIKLEATVARQIQAQFQTSGKQALQEGLRSSVESSVIPSFEKACKAMFDQIDSAFQKGIAEHTNAAQQRFDSGHSQLAHTLKESITSASSVAQALSRELAETQRNLLALAAAGANSGGSNSLVTQLSGGPLGALLEKVEAPMDPTTELSRLISERKYEESFTSALQRSDVSIVSWLCSQVDLRGLLAMNPLPLSQGVLLSLLQQLACDISKDTSRKLAWMTDVVAAINPSDQMIAVHARPIFEQVYQILHHHRNAPGSDVSAIRLIMHVINSMLMGCK

Tests used:
[1] = molecular target: YFPC-DCP1 (Arabidopsis thaliana) (UniProt Q9SJF3); assay: split reporter; BiFC with YFPN and YFPC fusions under the 35S promoter in transiently transformed N. benthamiana leaf epidermis cells, 72 h post-transfection; DCP2-mCHERRY or free RFP coexpressed
[2] = molecular target: SPI-PBW, N-terminally fused to the GAL4 Binding Domain (BD) (Arabidopsis thaliana) (UniProt F4HZB2); assay: two-hybrid; SPI-PBW or FAN-PB fused to the GAL4 BD, DCP1 homologs fused to the GAL4 AD; dropout medium -L -W -H with 3 mM 3AT
[3] = molecular target: FAN-PB N-terminally fused to the GAL4 Binding Domain (BD) (human) (UniProt Q92636); assay: as above
[4] = molecular target: SPI-PBW, N-terminally fused to the GAL4 Binding Domain (BD) (Arabidopsis thaliana) (UniProt F4HZB2); assay: two-hybrid; SPI-PBW fused to the GAL4 BD as bait, preys fused to the GAL4 AD; dropout medium -L -W -H with 5 mM 3AT; DCP1 first found in cDNA library screens

Molecule	binding [2]	binding [4]	further results
VPS20.2-YFPN (from UniProt Q9FY89 1-216)			binding [1]: no binding
B1	binds		
B2	binds		binding [3]: binds
B3		no binding	
B4		no binding	
